This is an account of results in publication PMC4385925.

Amino acid sequences for entries named in this document (tags omitted).
UniProt P03372: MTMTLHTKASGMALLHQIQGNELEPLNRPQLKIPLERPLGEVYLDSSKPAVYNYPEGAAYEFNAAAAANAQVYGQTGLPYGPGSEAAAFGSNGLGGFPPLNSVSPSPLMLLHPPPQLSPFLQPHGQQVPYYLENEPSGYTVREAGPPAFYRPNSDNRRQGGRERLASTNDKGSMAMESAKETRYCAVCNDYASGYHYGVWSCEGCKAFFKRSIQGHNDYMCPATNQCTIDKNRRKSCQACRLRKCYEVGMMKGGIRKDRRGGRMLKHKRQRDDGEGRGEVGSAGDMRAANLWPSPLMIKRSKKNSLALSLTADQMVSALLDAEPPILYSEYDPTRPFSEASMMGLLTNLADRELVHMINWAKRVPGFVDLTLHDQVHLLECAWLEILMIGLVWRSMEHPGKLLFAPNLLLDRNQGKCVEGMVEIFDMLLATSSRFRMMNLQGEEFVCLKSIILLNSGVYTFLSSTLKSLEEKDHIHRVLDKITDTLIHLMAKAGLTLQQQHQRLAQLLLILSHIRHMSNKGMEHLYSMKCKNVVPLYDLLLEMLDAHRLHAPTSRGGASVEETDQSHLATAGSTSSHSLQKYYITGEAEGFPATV
UniProt O43791: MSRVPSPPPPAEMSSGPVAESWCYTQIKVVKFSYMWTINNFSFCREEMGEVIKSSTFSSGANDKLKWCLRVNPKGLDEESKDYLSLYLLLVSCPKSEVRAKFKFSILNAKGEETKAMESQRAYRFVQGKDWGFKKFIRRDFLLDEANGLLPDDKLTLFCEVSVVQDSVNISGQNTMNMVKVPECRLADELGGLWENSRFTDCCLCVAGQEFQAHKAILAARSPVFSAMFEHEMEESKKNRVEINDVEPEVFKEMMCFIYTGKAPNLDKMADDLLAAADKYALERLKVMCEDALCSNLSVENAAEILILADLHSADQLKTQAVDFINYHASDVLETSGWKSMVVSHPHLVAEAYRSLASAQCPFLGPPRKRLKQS

Experiment [1] concerns the target endogenous ERα (Ishikawa cells) (human (endogenous in Ishikawa)) (UniProt P03372). Put plainly: co-IP; endogenous proteins; Ishikawa cells treated with 20 μM MG132 for 4 h, lysed in 1x cell lysis buffer; anti-ERα antibody overnight, protein A/G beads, 4 °C; Western blot.
Experiment [2] addresses FLAG-HA (FH)-ERα wild type (UniProt P03372). Put plainly: co-IP; 293T cells co-transfected, lysed 24 h later in BC100 buffer; anti-FLAG M2 agarose beads at 4 °C overnight, eluted with FLAG peptide, Western blot; in one panel cells treated with 10 nM 17β-estradiol (E2) or ethanol for 4 h (more SPOP co-precipitated with E2). (A western blot detects proteins with antibodies after separation by electrophoresis.)

The next experiment concerns the target FLAG-HA (FH)-SPOP (UniProt O43791). The experiment is described as above.
Another experiment concerns the target Myc-SPOP wild type (UniProt O43791). Put plainly: co-IP; 293T cells co-transfected with FH-ERα and Myc-SPOP-WT or deletion mutants (D1–D8); after 24 h lysates immunoprecipitated with anti-Myc antibody; Western blot.

These are yes or no findings as the source states them, for the method shown. In cells and extracts the contact can be indirect. Some entries that bind do so weakly or less than the wild type.

Turning to “endogenous SPOP (Ishikawa cells) (from UniProt O43791 1-374)”, the binding entry in experiment [1] is on record as “binds”.

Take “Myc-SPOP wild type (from UniProt O43791 1-374)”: the binding entry in experiment [2] was “binds”.

Regarding Myc-ERα (from UniProt P03372 1-595), in the experiment with FLAG-HA (FH)-SPOP, the binding result is “binds”.

Regarding “FLAG-HA (FH)-ERα wild type (from UniProt P03372 1-595)”, in the experiment with Myc-SPOP wild type, the binding result is on record as “binds”.
